The results in this text go back to article doi:10.1101/2022.10.12.511875.

Results are given in words; binding and its absence hold for the method and conditions named. For some assays here: In cells and extracts the contact can be indirect. For some assays here: Binding calls can cover weak binding; strength is not graded here. Where a sequence is shown, tags or fusion partners need not be part of it.

The target in assay [1] is T1, FLU (FLUORESCENT IN BLUE LIGHT), BiFC fusion (Arabidopsis thaliana) (UniProt Q940U6).
T1 sequence: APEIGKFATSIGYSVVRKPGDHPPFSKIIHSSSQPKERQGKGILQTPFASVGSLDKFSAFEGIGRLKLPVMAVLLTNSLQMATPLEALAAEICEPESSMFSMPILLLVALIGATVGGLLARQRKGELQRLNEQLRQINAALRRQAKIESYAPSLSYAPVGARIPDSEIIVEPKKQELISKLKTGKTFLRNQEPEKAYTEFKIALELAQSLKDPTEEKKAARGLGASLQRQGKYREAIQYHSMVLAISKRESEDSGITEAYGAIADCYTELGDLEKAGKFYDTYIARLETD
The experiment in a line: split reporter.

Assay [2] deals with T2, protochlorophyllide oxidoreductase A (PORA), yeast split-ubiquitin fusion (Arabidopsis thaliana) (UniProt Q42536).
T2 sequence: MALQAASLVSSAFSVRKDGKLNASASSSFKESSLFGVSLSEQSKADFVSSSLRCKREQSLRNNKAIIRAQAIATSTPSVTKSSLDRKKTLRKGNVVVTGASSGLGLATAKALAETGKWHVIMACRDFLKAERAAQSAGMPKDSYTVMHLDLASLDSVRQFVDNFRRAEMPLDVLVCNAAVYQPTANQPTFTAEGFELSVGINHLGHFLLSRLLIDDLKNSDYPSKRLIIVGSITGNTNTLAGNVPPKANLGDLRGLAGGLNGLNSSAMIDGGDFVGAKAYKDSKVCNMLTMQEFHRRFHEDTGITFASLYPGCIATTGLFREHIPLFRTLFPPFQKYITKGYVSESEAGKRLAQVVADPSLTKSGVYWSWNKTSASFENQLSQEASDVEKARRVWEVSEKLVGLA
Briefly: two-hybrid.

The target in assay [3] is T3, protochlorophyllide oxidoreductase B (PORB), yeast split-ubiquitin fusion (Arabidopsis thaliana) (UniProt P21218).
T3 sequence: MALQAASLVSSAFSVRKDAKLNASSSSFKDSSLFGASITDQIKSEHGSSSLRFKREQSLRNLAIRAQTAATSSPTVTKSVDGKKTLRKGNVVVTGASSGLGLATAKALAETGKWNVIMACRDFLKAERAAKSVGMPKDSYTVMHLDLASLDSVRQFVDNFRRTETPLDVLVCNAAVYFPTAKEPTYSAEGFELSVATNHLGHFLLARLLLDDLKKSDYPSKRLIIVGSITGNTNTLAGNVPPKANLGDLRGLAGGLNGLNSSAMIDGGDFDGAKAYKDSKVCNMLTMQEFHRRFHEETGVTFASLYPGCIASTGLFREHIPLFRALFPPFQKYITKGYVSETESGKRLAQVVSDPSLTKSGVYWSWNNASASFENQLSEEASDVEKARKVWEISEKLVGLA
The experiment in a line: two-hybrid.

Assay [4] has as its target T4, protochlorophyllide oxidoreductase C (PORC), yeast split-ubiquitin fusion (Arabidopsis thaliana) (UniProt O48741).
T4 sequence: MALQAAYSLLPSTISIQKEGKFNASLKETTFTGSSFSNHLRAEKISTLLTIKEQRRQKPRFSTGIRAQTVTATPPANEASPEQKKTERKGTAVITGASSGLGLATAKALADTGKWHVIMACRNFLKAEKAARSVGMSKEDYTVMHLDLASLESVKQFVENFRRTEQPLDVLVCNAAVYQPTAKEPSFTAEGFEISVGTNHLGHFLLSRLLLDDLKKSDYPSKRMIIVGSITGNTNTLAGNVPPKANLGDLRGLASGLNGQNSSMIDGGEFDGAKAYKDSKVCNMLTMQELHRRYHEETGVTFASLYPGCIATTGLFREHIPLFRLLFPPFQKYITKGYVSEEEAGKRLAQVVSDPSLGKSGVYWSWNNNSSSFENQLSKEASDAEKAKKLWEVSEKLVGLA
The experiment in a line: two-hybrid.

For assay [5], the target named is Mg protoporphyrin monomethylester (MgPME) cyclase subunit CHL27, BiFC fusion (Arabidopsis thaliana). Briefly: split reporter.
Assay [6] concerns the target glutamyl-tRNA reductase (GluTR), BiFC fusion (Arabidopsis thaliana). The experiment in a line: split reporter.
Assay [7] has as its target MgPME cyclase subunit CHL27, yeast split-ubiquitin fusion (Arabidopsis thaliana). Briefly: two-hybrid.

As for “glutamyl-tRNA reductase (GluTR), BiFC fusion (Arabidopsis thaliana) (enzyme)”, the binding entry in assay [1] is reported as “binds”.

Take “FC2ΔCAB, yeast split-ubiquitin fusion (Arabidopsis thaliana) (domain or fragment)”: the binding result in assay [2], in assay [3] and in assay [4] was “no binding” in each case.

B1: ferrochelatase 2 (FC2), BiFC fusion (enzyme, UniProt O04921 84-512)
chain: VISDAISSSSVITDDAKIGVLLLNLGGPETLDDVQPFLFNLFADPDIIRLPPVFQFLQKPLAQFISVARAPKSKEGYASIGGGSPLRHITDAQAEELRKCLWEKNVPAKVYVGMRYWHPFTEEAIEQIKRDGITKLVVLPLYPQFSISTSGSSLRLLERIFREDEYLVNMQHTVIPSWYQREGYIKAMANLIQSELGKFGSPNQVVIFFSAHGVPLAYVEEAGDPYKAEMEECVDLIMEELDKRKITNAYTLAYQSRVGPVEWLKPYTEEAITELGKKGVENLLAVPISFVSEHIETLEEIDVEYKELALKSGIKNWGRVPALGTEPMFISDLADAVVESLPYVGAMAVSNLEARQSLVPLGSVEELLATYDSQRRELPAPVTMWEWGWTKSAETWNGRAAMLAVLALLVLEVTTGKGFLHQWGILPSL
Consider B1, for which the binding result is “no binding” in assay [5] and “binds” in assay [6].

B2: protochlorophyllide oxidoreductase B (PORB), BiFC fusion (enzyme, UniProt P21218 67-401)
chain: QTAATSSPTVTKSVDGKKTLRKGNVVVTGASSGLGLATAKALAETGKWNVIMACRDFLKAERAAKSVGMPKDSYTVMHLDLASLDSVRQFVDNFRRTETPLDVLVCNAAVYFPTAKEPTYSAEGFELSVATNHLGHFLLARLLLDDLKKSDYPSKRLIIVGSITGNTNTLAGNVPPKANLGDLRGLAGGLNGLNSSAMIDGGDFDGAKAYKDSKVCNMLTMQEFHRRFHEETGVTFASLYPGCIASTGLFREHIPLFRALFPPFQKYITKGYVSETESGKRLAQVVSDPSLTKSGVYWSWNNASASFENQLSEEASDVEKARKVWEISEKLVGLA
Turning to B2, in assay [6], the binding entry is given as “binds”.

B3: ferrochelatase 2 (FC2), yeast split-ubiquitin fusion (enzyme, UniProt O04921 1-512)
chain: MNCPAMTASPSSSSSSSYSTFRPPPPLLPQLSNDSQRSVVMHCTRLPFEAFAATSSNRLLGKHSLPLRAALVTSNPLNISSSSVISDAISSSSVITDDAKIGVLLLNLGGPETLDDVQPFLFNLFADPDIIRLPPVFQFLQKPLAQFISVARAPKSKEGYASIGGGSPLRHITDAQAEELRKCLWEKNVPAKVYVGMRYWHPFTEEAIEQIKRDGITKLVVLPLYPQFSISTSGSSLRLLERIFREDEYLVNMQHTVIPSWYQREGYIKAMANLIQSELGKFGSPNQVVIFFSAHGVPLAYVEEAGDPYKAEMEECVDLIMEELDKRKITNAYTLAYQSRVGPVEWLKPYTEEAITELGKKGVENLLAVPISFVSEHIETLEEIDVEYKELALKSGIKNWGRVPALGTEPMFISDLADAVVESLPYVGAMAVSNLEARQSLVPLGSVEELLATYDSQRRELPAPVTMWEWGWTKSAETWNGRAAMLAVLALLVLEVTTGKGFLHQWGILPSL
As to B3, the binding result in assay [7] is “no binding”.
